Measurements: patent US20110045007A1
Results are given in words; binding and its absence hold for the method and conditions named. Some entries that bind do so weakly or less than the wild type.

Tests used:
[1] = target: T1, Bet v 1 (Birch) (UniProt P15494); assay: summary of the results (radio immuno assay of Example 49)
T1 sequence (125I label (chloramine-T) on the radiolabelled form, looked up): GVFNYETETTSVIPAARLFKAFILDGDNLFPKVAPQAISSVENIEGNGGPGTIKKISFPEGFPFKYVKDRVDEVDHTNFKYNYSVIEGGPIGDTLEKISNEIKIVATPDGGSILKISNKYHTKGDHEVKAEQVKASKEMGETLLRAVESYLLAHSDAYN

[2] = target: T1, Bet v 1 (Birch); assay: radio immuno assay, antibody on Protein G Sepharose, 125I-labelled Bet v 1
[3] = target: T1, Bet v 1 (Birch); assay: crosslinking radio immuno assay, Bet v 1 Sepharose and 125I-labelled Bet v 1
[4] = target: T1, Bet v 1 (Birch); assay: gel filtration fractions tested with 125I-labelled Bet v 1 and Protein-G sepharose

Measured: binding

B1: Betv1-HG (antibody, V domains shown)
VH: EVQLQQSGAELVKPGASVKLSCTASGFNIKDTYIHWVKQRPEQGLEWVGRIDPATGNTRYDPKFQGKATITADTSSNTAYLQLSSLTSEDTAVYYCASFRPGYALDYWGQGTSVTVSS
VL: DIVMTQSHKFMSTSVGDRVSFTCKASQDVFTAVAWYQQKPGQSPKLLIYWASTRRTGVPDRFTGSGSGTDYTLTISSVQAEDLALYYCQQHFSTPPTFGGGTKLEIKR
binds: all assays above

B2: Betv1-IgG1 (antibody, not shown: a dimerising Fc or GST)
heavy: B1 VH
light: DIVMTQSHKFMSTSVGDRVSFTCKASQDVFTAVAWYQQKPGQSPKLLIYWASTRRTGVPDRFTGSGSGTDYTLTISSVQAEDLALYYCQQHFSTPPTFGGGTKLEIKRTVAAPSVFIFPPSDEQLKSGTASVVCLLNNFYPREAKVQWKVDNALQSGNSQESVTEQDSKDSTYSLSSTLTLSKADYEKHKVYACEVTHQGLSSPVTKSFNRGEC
binds: [2] | [3]
